This assay concerns the target EphA4 (tyrosine kinase receptor EphA4), endogenous in mouse amygdala (mouse (endogenous in amygdala)) (UniProt Q03137). Put plainly: co-IP.

Protein sequences, listed by entry. Tags and fused reporters are not part of them. Residues count along the entry.
UniProt Q03137, residues 20-986: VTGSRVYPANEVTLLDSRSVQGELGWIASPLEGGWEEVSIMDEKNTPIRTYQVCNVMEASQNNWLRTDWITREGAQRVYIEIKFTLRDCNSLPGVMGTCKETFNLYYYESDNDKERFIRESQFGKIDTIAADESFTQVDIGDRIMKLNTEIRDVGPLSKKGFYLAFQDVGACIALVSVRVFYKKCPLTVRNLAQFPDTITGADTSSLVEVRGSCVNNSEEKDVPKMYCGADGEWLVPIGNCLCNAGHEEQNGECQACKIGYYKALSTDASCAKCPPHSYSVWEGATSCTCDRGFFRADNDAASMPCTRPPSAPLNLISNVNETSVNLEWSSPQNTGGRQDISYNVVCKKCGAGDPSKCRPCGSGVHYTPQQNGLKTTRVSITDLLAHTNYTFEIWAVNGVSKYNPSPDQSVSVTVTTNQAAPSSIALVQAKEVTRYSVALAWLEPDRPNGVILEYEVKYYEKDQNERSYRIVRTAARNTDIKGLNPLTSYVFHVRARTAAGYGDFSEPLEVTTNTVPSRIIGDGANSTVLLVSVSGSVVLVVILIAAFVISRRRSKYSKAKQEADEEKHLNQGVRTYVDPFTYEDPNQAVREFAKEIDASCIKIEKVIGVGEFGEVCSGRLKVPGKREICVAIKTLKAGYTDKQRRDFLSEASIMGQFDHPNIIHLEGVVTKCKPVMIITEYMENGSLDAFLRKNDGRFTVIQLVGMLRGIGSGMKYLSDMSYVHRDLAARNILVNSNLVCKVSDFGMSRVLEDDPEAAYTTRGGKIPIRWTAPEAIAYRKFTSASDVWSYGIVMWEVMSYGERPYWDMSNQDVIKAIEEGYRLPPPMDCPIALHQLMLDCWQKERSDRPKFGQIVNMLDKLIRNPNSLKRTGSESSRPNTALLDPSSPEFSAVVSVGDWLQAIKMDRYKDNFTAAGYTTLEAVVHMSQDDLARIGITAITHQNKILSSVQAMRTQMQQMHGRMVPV

From article doi:10.1101/2021.07.16.452595 come the findings set out here.

These are yes or no findings as the source states them, for the method shown. In cells and extracts the contact can be indirect. Some entries that bind do so weakly or less than the wild type.

B1: gephyrin, endogenous in mouse amygdala (protein, UniProt Q8BUV3 1-769)
chain: MATEGMILTNHDHQIRVGVLTVSDSCFRNLAEDRSGINLKDLVQDPSLLGGTISAYKIVPDEIEEIKETLIDWCDEKELNLILTTGGTGFAPRDVTPEATKEVIEREAPGMALAMLMGSLNVTPLGMLSRPVCGIRGKTLIINLPGSKKGSQECFQFILPALPHAIDLLRDAIVKVKEVHDELEDLPSPPPPLSPPPTTSPHKQTEDKGVQCEEEEEEKKDSGVASTEDSSSSHITAAALAAKIPDSIISRGVQVLPRDTASLSTTPSESPRAQATSRLSTASCPTPKQIRRPDESKGVASRVGSLKARLPSCSSTYSVSEVQSRCSSKENILRASHSAVDITKVARRHRMSPFPLTSMDKAFITVLEMTPVLGTEIINYRDGMGRVLAQDVYAKDNLPPFPASVKDGYAVRAADGPGDRFIIGESQAGEQPTQTVMPGQVMRVTTGAPIPCGADAVVQVEDTELIRESDDGTEELEVRILVQARPGQDIRPIGHDIKRGECVLAKGTHMGPSEIGLLATVGVTEVEVNKFPVVAVMSTGNELLNPEDDLLPGKIRDSNRSTLLATIQEHGYPTINLGIVGDNPDDLLNALNEGISRADVIITSGGVSMGEKDYLKQVLDIDLHAQIHFGRVFMKPGLPTTFATLDIDGVRKIIFALPGNPVSAVVTCNLFVVPALRKMQGILDPRPTIIKARLSCDVKLDPRPEYHRCILTWHHQEPLPWAQSTGNQMSSRLMSMRSANGLLMLPPKTEQYVELHKGEVVDVMVIGRL
As for B1, the binding entry was “binds”.
